Source: publication PMC11508090
Results are given in words; binding and its absence hold for the method and conditions named. In cells and extracts the contact can be indirect. These calls come from enrichment with a bait or labelling near it, and not all partners need be listed.

The chains behind the UniProt entries cited, without tags or fusion partners. Where a name states a change or a piece, a line headed by the entry shows the natural chain unless it says otherwise.
UniProt P51979: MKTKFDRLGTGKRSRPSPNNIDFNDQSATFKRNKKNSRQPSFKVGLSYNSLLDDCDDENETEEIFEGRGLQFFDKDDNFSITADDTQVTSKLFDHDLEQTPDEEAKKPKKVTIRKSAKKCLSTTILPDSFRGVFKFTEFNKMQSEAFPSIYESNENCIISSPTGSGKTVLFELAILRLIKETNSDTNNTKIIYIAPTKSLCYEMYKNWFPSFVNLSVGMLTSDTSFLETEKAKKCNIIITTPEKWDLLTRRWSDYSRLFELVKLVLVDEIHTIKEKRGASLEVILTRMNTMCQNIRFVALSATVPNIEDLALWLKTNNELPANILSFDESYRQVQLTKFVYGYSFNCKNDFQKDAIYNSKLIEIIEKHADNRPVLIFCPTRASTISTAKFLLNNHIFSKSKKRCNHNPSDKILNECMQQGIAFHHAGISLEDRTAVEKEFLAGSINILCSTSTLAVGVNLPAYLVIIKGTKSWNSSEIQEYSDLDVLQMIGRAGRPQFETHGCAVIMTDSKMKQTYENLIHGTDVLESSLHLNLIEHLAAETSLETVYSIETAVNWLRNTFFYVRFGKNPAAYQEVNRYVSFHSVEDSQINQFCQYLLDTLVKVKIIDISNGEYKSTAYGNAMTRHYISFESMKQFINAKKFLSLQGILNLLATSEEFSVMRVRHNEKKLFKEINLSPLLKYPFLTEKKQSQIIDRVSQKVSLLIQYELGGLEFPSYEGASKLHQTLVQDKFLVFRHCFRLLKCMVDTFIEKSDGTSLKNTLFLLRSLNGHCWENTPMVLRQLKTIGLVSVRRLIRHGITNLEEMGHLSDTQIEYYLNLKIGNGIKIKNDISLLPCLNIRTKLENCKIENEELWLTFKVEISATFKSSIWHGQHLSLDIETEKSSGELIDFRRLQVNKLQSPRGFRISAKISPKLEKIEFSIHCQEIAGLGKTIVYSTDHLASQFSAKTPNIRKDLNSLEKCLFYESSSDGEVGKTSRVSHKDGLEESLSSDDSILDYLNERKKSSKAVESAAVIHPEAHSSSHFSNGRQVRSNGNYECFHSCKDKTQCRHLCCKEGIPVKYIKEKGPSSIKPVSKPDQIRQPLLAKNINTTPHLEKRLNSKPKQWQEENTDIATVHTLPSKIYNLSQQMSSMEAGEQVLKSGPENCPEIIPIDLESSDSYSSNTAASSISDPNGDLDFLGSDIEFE
UniProt Q12306: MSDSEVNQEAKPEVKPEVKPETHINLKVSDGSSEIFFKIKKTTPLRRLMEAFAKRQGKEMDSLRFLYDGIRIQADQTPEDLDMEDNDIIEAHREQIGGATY

What was measured:
[1] = target: T1, Msh4-TurboID (S. cerevisiae) (UniProt P40965); assay: proximity labelling; eleven TurboID fusion strains (ndt80, homozygous) and a no-TurboID control, ~24 h sporulation, two replicates; TCA extract, streptavidin-sepharose pull-down, trypsin, UPLC-MS/MS; targets = in both replicates and in neither control
T1 sequence: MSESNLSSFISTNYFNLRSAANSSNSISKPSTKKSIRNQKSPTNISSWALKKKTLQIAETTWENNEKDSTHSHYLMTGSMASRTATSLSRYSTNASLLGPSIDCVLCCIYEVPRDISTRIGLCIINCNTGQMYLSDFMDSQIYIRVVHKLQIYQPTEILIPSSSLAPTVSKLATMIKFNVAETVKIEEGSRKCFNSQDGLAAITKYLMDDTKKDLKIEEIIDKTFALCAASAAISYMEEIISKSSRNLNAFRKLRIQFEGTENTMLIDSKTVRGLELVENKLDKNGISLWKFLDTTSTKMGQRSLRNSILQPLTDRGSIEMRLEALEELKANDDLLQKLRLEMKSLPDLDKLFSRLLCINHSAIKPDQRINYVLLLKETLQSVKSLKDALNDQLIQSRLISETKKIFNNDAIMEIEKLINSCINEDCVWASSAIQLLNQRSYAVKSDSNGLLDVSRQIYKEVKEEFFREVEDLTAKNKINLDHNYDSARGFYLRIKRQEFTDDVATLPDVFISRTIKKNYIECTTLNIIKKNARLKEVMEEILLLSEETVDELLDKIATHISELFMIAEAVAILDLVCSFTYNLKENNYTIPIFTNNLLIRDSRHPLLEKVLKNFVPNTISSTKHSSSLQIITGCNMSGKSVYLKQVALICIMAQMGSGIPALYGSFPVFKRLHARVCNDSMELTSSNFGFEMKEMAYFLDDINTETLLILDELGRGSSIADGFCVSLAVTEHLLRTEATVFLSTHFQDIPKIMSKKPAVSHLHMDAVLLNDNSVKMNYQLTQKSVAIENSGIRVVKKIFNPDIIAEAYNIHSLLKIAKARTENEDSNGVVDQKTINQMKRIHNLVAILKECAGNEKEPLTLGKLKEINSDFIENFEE

[2] = target: T2, Msh5-TurboID (S. cerevisiae) (UniProt Q12175); assay: as above
T2 sequence: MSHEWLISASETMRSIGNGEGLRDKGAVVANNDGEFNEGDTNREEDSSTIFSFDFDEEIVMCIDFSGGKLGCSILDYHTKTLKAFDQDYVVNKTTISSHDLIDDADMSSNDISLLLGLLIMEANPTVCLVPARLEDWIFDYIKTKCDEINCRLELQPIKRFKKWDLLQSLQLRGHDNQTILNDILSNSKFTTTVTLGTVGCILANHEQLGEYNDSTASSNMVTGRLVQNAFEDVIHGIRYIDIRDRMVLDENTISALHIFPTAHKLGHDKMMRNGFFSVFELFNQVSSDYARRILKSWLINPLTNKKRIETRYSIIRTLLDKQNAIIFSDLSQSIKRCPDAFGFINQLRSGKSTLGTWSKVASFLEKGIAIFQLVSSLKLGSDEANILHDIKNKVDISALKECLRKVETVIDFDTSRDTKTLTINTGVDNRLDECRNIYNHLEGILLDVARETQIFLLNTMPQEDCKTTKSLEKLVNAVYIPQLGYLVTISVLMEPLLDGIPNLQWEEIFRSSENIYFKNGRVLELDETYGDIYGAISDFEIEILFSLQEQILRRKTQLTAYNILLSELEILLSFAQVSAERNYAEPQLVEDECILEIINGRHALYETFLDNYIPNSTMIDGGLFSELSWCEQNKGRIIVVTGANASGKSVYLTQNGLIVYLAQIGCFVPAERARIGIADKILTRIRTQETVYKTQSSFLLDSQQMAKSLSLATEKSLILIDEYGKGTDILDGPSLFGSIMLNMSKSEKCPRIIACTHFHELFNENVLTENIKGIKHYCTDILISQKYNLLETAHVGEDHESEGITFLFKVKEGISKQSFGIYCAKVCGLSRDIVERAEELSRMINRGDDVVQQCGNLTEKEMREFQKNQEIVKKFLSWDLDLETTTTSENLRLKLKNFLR

[3] = target: T3, Ecm11-TurboID (S. cerevisiae) (UniProt Q04110); assay: as above
T3 sequence: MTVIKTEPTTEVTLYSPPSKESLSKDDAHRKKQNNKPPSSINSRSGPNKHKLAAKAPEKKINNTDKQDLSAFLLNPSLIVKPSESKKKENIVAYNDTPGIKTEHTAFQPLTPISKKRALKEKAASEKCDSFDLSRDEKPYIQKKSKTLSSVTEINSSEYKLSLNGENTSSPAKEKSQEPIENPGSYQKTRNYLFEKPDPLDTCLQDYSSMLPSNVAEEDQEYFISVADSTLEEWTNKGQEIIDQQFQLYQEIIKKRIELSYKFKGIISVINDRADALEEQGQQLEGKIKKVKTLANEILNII

[4] = target: T1, Msh4-TurboID (S. cerevisiae); assay: proximity labelling; TurboID fusion allele (homozygous, or heterozygous where said) in ndt80 diploid cells, 24 h in sporulation medium, endogenous biotin; TCA extract, 8% or 12% SDS-PAGE, streptavidin:HRP blot; also done in mutant backgrounds in which the labelling was kept
[5] = target: T4, Zip2-TurboID (S. cerevisiae) (UniProt P53061); assay: as above
T4 sequence: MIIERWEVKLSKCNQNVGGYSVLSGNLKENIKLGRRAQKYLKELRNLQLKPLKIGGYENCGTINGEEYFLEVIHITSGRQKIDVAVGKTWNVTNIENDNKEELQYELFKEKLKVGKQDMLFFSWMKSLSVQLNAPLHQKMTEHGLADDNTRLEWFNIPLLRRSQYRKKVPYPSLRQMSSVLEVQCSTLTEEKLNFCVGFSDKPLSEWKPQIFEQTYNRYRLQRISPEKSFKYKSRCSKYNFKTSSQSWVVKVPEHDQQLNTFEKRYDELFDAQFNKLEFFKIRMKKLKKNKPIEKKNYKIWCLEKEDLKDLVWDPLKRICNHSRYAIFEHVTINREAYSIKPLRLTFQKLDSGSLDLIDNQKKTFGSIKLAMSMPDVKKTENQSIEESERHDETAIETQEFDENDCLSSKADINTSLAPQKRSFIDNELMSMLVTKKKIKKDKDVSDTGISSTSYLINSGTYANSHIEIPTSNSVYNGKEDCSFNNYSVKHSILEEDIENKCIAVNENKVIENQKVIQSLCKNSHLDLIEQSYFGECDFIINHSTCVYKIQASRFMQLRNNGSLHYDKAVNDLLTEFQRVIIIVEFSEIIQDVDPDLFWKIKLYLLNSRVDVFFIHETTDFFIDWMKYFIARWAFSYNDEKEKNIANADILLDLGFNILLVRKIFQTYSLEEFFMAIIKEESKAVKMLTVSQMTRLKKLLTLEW

[6] = target: T5, Ecm11-TurboID (S. cerevisiae), Q04110; assay: proximity labelling; eleven TurboID fusion strains (ndt80, homozygous) and a no-TurboID control, ~24 h sporulation, two replicates; TCA extract, streptavidin-sepharose pull-down, trypsin, UPLC-MS/MS; targets = in both replicates and in neither control; details: remark: other sources report otherwise
T5 chain: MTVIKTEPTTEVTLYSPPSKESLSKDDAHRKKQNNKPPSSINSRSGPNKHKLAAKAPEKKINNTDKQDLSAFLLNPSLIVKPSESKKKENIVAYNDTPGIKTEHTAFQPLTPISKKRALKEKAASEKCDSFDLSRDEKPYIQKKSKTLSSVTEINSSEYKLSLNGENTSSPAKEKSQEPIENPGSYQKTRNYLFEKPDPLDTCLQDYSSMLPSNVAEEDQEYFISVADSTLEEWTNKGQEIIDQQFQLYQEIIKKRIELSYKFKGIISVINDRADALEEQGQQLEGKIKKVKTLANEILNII

**Q.** Mer3 (from UniProt P51979 1-1187) was tested. Which binding [1] did it give?
**A.** The binding was “binds”.

**Q.** And the binding [2]?
**A.** The binding was “binds”.

**Q.** Which binding [3] does the source give for “SUMO protein (encoded by the SMT3 gene) (from UniProt Q12306)” here?
**A.** The binding was “binds”.

B1: Ecm11[K5R, K101R] (protein, UniProt Q04110 1-302)
chain: MTVIRTEPTTEVTLYSPPSKESLSKDDAHRKKQNNKPPSSINSRSGPNKHKLAAKAPEKKINNTDKQDLSAFLLNPSLIVKPSESKKKENIVAYNDTPGIRTEHTAFQPLTPISKKRALKEKAASEKCDSFDLSRDEKPYIQKKSKTLSSVTEINSSEYKLSLNGENTSSPAKEKSQEPIENPGSYQKTRNYLFEKPDPLDTCLQDYSSMLPSNVAEEDQEYFISVADSTLEEWTNKGQEIIDQQFQLYQEIIKKRIELSYKFKGIISVINDRADALEEQGQQLEGKIKKVKTLANEILNII
**Q.** What does the source list for B1?
**A.** binding [4]: binds; binding [5]: binds

B2: Zip1, P31111 1-875 (protein)
chain: MSNFFRDSSMGFKPRPNIFAKLRVRDVDSDSSANTVVENSSNCLDVGSSIEGDDTFKKPHKTSTEQELITSMSLSQRNHGYSDDMEIGSPKKTTSTDQYNRILKNDVAAIENDTDEDFEITEVREVSEGVAKETKESHGDPNDSETTLKDSKMHEYTMTNGKAPLHTSINNSSTSSNDVLLEAFTNTQRICSNLKQELQKQQQDNAKLKVRLQSYASNSDKINEKVGKYKSCLETLQERIATLTSHKNNQETKLKDLRQNHQLYQRRISGFKTSIENLNKTINDLGKNKKEADAELMKKGKEIEYLKRELDDCSGQLSEEKIKNSSLIQEMGKNREEMIKSIENFFSEDKAHHLLQFNKFEERVHDLFEKKLQKHFDVAKDTLNVGLRNTTVELSSNTETMLKQQYEDIKENLEQKMSSSKDEMAKTINELSVTQKGLIMGVQEELLTSSGNIQTALVSEMNNTRQELLDDASQTAKNYASLENLVKAYKAEIVQSNEYEERIKHLESERSTLSSQKNQIISSLGTKEAQYEDLVKKLEAKNIEISQISGKEQSLTEKNENLSNELKKVQDQLEKLNNLNITTKSNYENKISSQNEIVKALVSENDTLKQRIQQLVEIKENEQKDHTTKLEAFQKNNEQLQKLNVEVVQLKAHELELEEQNRHLKNCLEKKETGVEESLSDVKTLKQQVIVLKSEKQDITAEKLELQDNLESLEEVTKNLQQKVQSQKRELEQKIKELEEIKNHKRNEPSKKGTQNFTKPSDSPKKNATTSNLFPNNSAAIHSPMKKCPKVDHISKSRINSSKETSKFNDEFDLSSSSNDDLELTNPSPIQIKPVRGKIKKGSNCMKPPISSRKKLLLVEDEDQSLKISKKRRRK
**Q.** For B2, which binding [6] is on record?
**A.** Its binding is “binds”.
